Measured values: patent US4859452A (priority 1987, dated 1989)
Entries after “also recorded” stand apart in the source; their conditions may differ.

Columns and labels:
[1] = tested on: methylcholanthrene-induced fibrosarcoma; details: 450 mg of ornithine for every 100 ml of the amino acid formulation
[2] = in words; tumor and RBC

NCCC[C@H](N)C(=O)O [ornithine]
toxicity of continuous infusion [1]: posed no toxicity problems
comparison of ornithine and arginine for increase in polyamine levels [2]: functioned better than arginine; also recorded: both appeared to promote an increase in tumor-related levels
